The assay concerns the target FimA of E. coli K12 W3110 in type 1 pili assembled in vivo (for stability studies) (E. coli K12 W3110) (UniProt P04128). Put plainly: co-sedimentation; pili assembled in vivo in W3110ΔfimA with pCG1-AC; released at 90°C, precipitated with 0.1 M MgCl2, washed with 1% SDS, pelleted at 186'000 x g; dissociation/unfolding by GdmCl at pH 2.1 followed by far-UV CD.

Here are results for 1 molecule from article PMC5719983, “The Cryoelectron Microscopy Structure of the Type 1 Chaperone-Usher Pilus Rod” (Structure(London, England:1993), 2017).

No constants are given. Whether binding was seen depends on the method and setting. In cells and extracts the contact can be indirect. Some results given as binding are weak or reduced against the parent protein; the word gives no strength.

B1: Mature FimA without its natural signal sequence (159 residues), refolded FimA monomer (natural protein)
chain: AATTVNGGTVHFKGEVVNAACAVDAGSVDQTVQLGQVRTASLAQEGATSSAVGFNIQLNDCDTNVASKAAVAFLGTAIDAGHTNVLALQSSAAGSATNVGVQILDRTGAALTLDGATFSSETTLNNGTNTIPFQARYFATGAATPGAANADATFKVQYQ
notes: the N-terminal methionine added for cytoplasmic expression was cleaved off quantitatively (measured 15826.0 Da). numbers count on: the mature protein; also called pili assembled in vitro
For the molecule B1, the binding result is “binds”.
